PubChem BioAssay AID1259405 – NCATS – 2018
Aim: 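Mouse-designed siRNAs used to find CHO productivity engineering targets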 (primary screen). Cells: Chinese hamster CHO-K1 ovary cells with stable secreted eGFP expression. Reagents: single siRNA against mouse genes, 0.8 pmol siRNA per well (2 µl of 400 nM stock). Time to read-out: 3 days. Read-out: 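Percent of the per-plate non-targeting control median for intracellular GFP per well by laser scanning cytometry and for cell viability by ATP luminescence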. Reading the numbers: GFP, % of control: higher = more GFP per well, higher productivity; viability (ATP), % of control: higher = more viable cells (more ATP). Call rule: 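a knock-down is called active if GFP reaches 120% or more of non-targeting control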.
The whole screen tested about 50,000 reagents; shown is a part drawn at random. About 4,000 of all reagents (8%) were called active. 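Mouse siRNA library applied to hamster cells; one well for each siRNA.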 Reagents against one gene are numbered here. Reagent sequences are not shown.

Knock-down of Zmiz2 (zinc finger, MIZ-type containing 2) #1 resulted in: GFP, % of control 104; viability (ATP), % of control 102; inactive.
Silencing of Zmiz2 (zinc finger, MIZ-type containing 2) #2 resulted in: GFP, % of control 32.9; viability (ATP), % of control 35.7; inactive.
Zmiz2 (zinc finger, MIZ-type containing 2) #3 scored GFP, % of control 121; viability (ATP), % of control 82.6; active.
Depletion of Wdr27 (WD repeat domain 27) #1 resulted in: GFP, % of control 39.5; viability (ATP), % of control 62.8; inactive.
Silencing of Wdr27 (WD repeat domain 27) #2 came out at: GFP, % of control 47.1; viability (ATP), % of control 67.8; inactive.
Wdr27 (WD repeat domain 27) #3 showed GFP, % of control 57; viability (ATP), % of control 56.7; inactive.
Silencing of Gatad2a (GATA zinc finger domain containing 2A) #1 resulted in: GFP, % of control 103; viability (ATP), % of control 113; inactive.
For Gatad2a (GATA zinc finger domain containing 2A) #2, the values are GFP, % of control 52.5; viability (ATP), % of control 43.9; inactive.
After knock-down of Gatad2a (GATA zinc finger domain containing 2A) #3 the results were GFP, % of control 69.5; viability (ATP), % of control 72.1; inactive.
With knock-down of Smarcd1 (SWI/SNF related BAF chromatin remodeling complex subunit D1) #1, the record shows GFP, % of control 66.1; viability (ATP), % of control 72.3; inactive.
For Smarcd1 (SWI/SNF related BAF chromatin remodeling complex subunit D1) #2, the entry reads GFP, % of control 30.1; viability (ATP), % of control 36.2; inactive.
Silencing of Smarcd1 (SWI/SNF related BAF chromatin remodeling complex subunit D1) #3 resulted in: GFP, % of control 55.1; viability (ATP), % of control 63.1; inactive.
Sgce (sarcoglycan, epsilon) #1 showed GFP, % of control 107; viability (ATP), % of control 62.7; inactive.
Sgce (sarcoglycan, epsilon) #2 gave GFP, % of control 69.9; viability (ATP), % of control 79.4; inactive.
Sgce (sarcoglycan, epsilon) #3 gave GFP, % of control 91.3; viability (ATP), % of control 93.2; inactive.
With knock-down of Prkab1 (protein kinase, AMP-activated, beta 1 non-catalytic subunit) #1, the screen gave GFP, % of control 72.6; viability (ATP), % of control 91.9; inactive.
Prkab1 (protein kinase, AMP-activated, beta 1 non-catalytic subunit) #2 gave GFP, % of control 111; viability (ATP), % of control 99.1; inactive.

Taken from above:
Gatad2a (GATA zinc finger domain containing 2A) #1, GFP, % of control → 103
Zmiz2 (zinc finger, MIZ-type containing 2) #3, viability (ATP), % of control = 82.6
